Results: PubChem BioAssay AID504467 (National Center for Advancing Translational Sciences (NCATS), 2011)
The campaign covered roughly 330,000 compounds. About 7,700 (2.3%) were called active. Inconclusive means that the source gave no clear call. Such entries were picked first, then a sample of the others. Calls follow the shape of the dose curve; as a rule, active = well fitted inhibition curve with a large enough effect; inconclusive = small, poorly fitted or top-dose-only effect, or effect the other way; inactive = flat fitted curve, though single readings scatter. Potencies beside an inconclusive call are fits to weak or partial responses and may not hold up.
% is scaled to controls: 0 for no effect and ±100 for the full control effect; potency is read from the fitted curve at half-maximal effect.

Test: qHTS screen for small molecules that inhibit ELG1-dependent DNA repair in human embryonic kidney (HEK293T) cells expressing luciferase-tagged ELG1; also: nearly all actives have a fitted effect of over 55% in size
Settings: HEK293T ELG1-luciferase reporter, luminescence, 16 h, DNA damage induced by 5-fluorouridine; activity change, negative = inhibition: at 46.1 µM (top of the series)
Method in brief: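 In this reporter screen, reduction of luminescence relative to DMSO vehicle indicated activity. Compounds and 5-fluorouridine were added together to 2,000 cells per well, incubated for 16 hr at 37 °C, then developed with ONE-Glo.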
With O=C(COC(=O)C1CC1)Nc1ccc2c(c1)OCO2 the Potency was inconclusive: 20.6 µM [activator, partial curve, poor fit]. With O=C(NNc1nc2cc3c(cc2s1)OCO3)c1cccc(F)c1 the Potency was inconclusive: 14.6 µM [activator, partial curve]. With Cc1nn2c(NCCCn3ccnc3)cc(C(C)C)nc2c1-c1ccccc1 the “activity change, negative = inhibition” value was inactive: -13.5%. In the case of Cn1c(=O)c2c(nc(SCC(=O)NCc3ccco3)n2C)n(C)c1=O, the “activity change, negative = inhibition” value is reported as inactive: 9.27%. In the case of Cc1nn(Cc2ccccc2Cl)c2sc(C(=O)OC3CCCC3=O)cc12 (centres undefined), the Potency is reported as inconclusive: 17.8 µM [inhibitor, single point]. In the case of CCN(C(=O)CSc1nnc(-c2ccco2)n1C)c1c(N)n(Cc2ccccc2)c(=O)[nH]c1=O, the “activity change, negative = inhibition” value is reported as inactive: 13.6%. With CC1CCCCN1C(=O)CSc1nnc(-c2ccco2)o1 (centres undefined) the Potency was inconclusive: 20.6 µM [activator, partial curve]. In the case of CCOC(=O)c1c(N)c(C#N)cn1-c1ccccc1, the Potency is reported as inconclusive: 0.0041 µM [inhibitor, full curve, poor fit]. For O=C1CCC(=O)N1c1ccc(CSc2nnnn2C2CCCCC2)cc1, the “activity change, negative = inhibition” value was inactive: 0%. For Cc1nc2ccccc2n1CC(=O)NC1CCCC1, the “activity change, negative = inhibition” value was inactive: -28.8%. In the case of CCOC(=O)C1CCN(Cc2ccc(-c3ccccc3)cc2)CC1, the “activity change, negative = inhibition” value is reported as inactive: 1.34%. With CCCC1OC2CC3C4CCC5=CC(=O)C=CC5(C)C4C(O)CC3(C)C2(C(=O)O)O1 (centres undefined) the “activity change, negative = inhibition” value was inactive: -10.8%. For COc1ccc(C)cc1NC(=O)CNC(=O)Cn1ccc2ccccc2c1=O, the Potency was inconclusive: 0.0058 µM [inhibitor, full curve, poor fit]. With COc1ccc(-c2nn(-c3ccccc3)cc2C#N)cc1 the Potency was inconclusive: 2.31 µM [activator, single point]. For O=C(NC1CCN(C(=S)NCc2ccco2)CC1)c1ccc(F)cc1, the activity change, negative = inhibition was inconclusive: 34.2% [activator]. In the case of Cc1cc(C)cc(Nc2ccc(C(=O)O)cc2N)c1, the Potency is reported as inconclusive: 20.6 µM [activator, single point]. With Cc1ccc2[nH]c3c(=O)n(CCC4=CCCCC4)cnc3c2c1 the “activity change, negative = inhibition” value was inactive: 16.8%. In the case of COc1ccc(N(Cc2cc3cc(OC)ccc3[nH]c2=O)S(=O)(=O)c2ccc(NC(C)=O)cc2)cc1, the Potency is reported as inconclusive: 0.73 µM [inhibitor, full curve]. For CCN(CC)c1ccc(NC(=O)Nc2cccc3ccccc23)cc1, the Potency was inconclusive: 14.6 µM [activator, single point]. For CCC(C)(C)C(=O)Nc1ncc(S(=O)(=O)c2ccc([N+](=O)[O-])cc2)s1, the Potency was inconclusive: 23.1 µM [inhibitor, partial curve]. For COc1cc(OC)cc(-c2nnc(N(C)C(=O)c3ccncc3)s2)c1, the Potency was inconclusive: 20.6 µM [activator, partial curve, poor fit]. For CC(C)c1ccc(NC(=O)C(c2ccccc2)N(Cc2ccco2)C(=O)CC2NC(=O)NC2=O)cc1 (centres undefined), the Potency was inconclusive: 16.4 µM [inhibitor, partial curve]. For Cc1ccc(C)c(N2N=C(C(=O)Nc3ccccc3N3CCOCC3)CCC2=O)c1, the Potency was active: 14.6 µM. In the case of Cc1sc(NC(=O)COc2ccccc2)c(C#N)c1C, the Potency is reported as inconclusive: 29.1 µM [activator, single point]. With CCN(C(=O)c1cnc(N2CCN(c3ncccn3)CC2)c2ccccc12)c1cccc(Cl)c1 the Potency was inconclusive: 25.9 µM [inhibitor, single point]. With COc1ccc(OC)c(NC(=O)Nc2ccc3c(c2)CCC3)c1 the “activity change, negative = inhibition” value was inactive: -2.8%. In the case of CCNC(=S)Nc1ccc(NC(=O)c2ccccc2O)cc1, the “activity change, negative = inhibition” value is reported as inactive: -6.49%. With CCOC(=O)C1CCN(C2=C(NS(=O)(=O)c3ccc(Br)cc3)C(=O)c3ccccc3C2=O)CC1 the “activity change, negative = inhibition” value was inactive: -3.36%. In the case of CCc1ccc(CN(C)C(=O)c2cc(COc3cc(C)c(Cl)c(C)c3)on2)nc1, the “activity change, negative = inhibition” value is reported as inactive: -1.73%. In the case of CC1Cn2c(COc3ccccc3)nnc2S1 (centres undefined), the “activity change, negative = inhibition” value is reported as inactive: -0.557%. For Cc1ccccc1OCc1nc2ccccc2c(=O)n1/N=C/c1c[nH]c2ccccc12, the Potency was inconclusive: 14.6 µM [inhibitor, single point]. For O=C(c1n[nH]c(=O)c2ccccc12)N1CCN(c2ccccc2Cl)CC1, the Potency was inconclusive: 16.4 µM [inhibitor, partial curve]. In the case of Cc1sc2ncnc(N/N=C/c3cccc(O)c3)c2c1C, the Potency is reported as inconclusive: 9.2 µM [activator, partial curve]. In the case of O=C(c1ccccc1NS(=O)(=O)c1cccs1)N1CCOCC1, the “activity change, negative = inhibition” value is reported as inactive: 8.86%. For CN(CCCN1CCOCC1)C(=O)c1cc(COc2ccc(F)cc2F)on1, the “activity change, negative = inhibition” value was inactive: 0%. For O=C(NCc1ccco1)C1CC2CCC1C2 (centres undefined), the Potency was inconclusive: 16.4 µM [activator, partial curve, poor fit]. In the case of COc1cccc(NC(=O)c2ccc(C(=O)c3ccccc3)o2)c1, the Potency is reported as inconclusive: 3.66 µM [activator, single point]. For O=C(CNC(=O)c1ccco1)NCC(=O)OCc1ccc(F)cc1, the “activity change, negative = inhibition” value was inactive: 14.9%. With CCCn1nnnc1-c1ccc(Cl)cc1 the “activity change, negative = inhibition” value was inactive: -19.5%. In the case of O=C(NCCCSc1ccccc1)c1cc(Br)ccc1O, the “activity change, negative = inhibition” value is reported as inactive: -0.996%. In the case of C=CCOc1ccc(/C=C2/C(=O)ON=C2C)cc1OCC, the Potency is reported as inconclusive: 29.1 µM [activator, single point]. In the case of CC(C)(C)c1cc(CCC(=O)NNC(=O)c2ccncc2)cc(C(C)(C)C)c1O, the “activity change, negative = inhibition” value is reported as inactive: 21%. With O=C(O)CC/C(=N/Nc1ncc(C(F)(F)F)cc1Cl)C(=O)O the Potency was inconclusive: 20.6 µM [inhibitor, single point]. With CCOC(=O)c1cc(NC(=O)C2CCCO2)cc(C(=O)OCC)c1 (centres undefined) the “activity change, negative = inhibition” value was inactive: 7.17%. For Cc1nnc(SCC(=O)Nc2cccc(N)c2)n1-c1ccccc1, the “activity change, negative = inhibition” value was inactive: -9.23%. For CCCn1c(=N)n(CC(O)COc2cccc(C)c2)c2ccccc21 (centres undefined), the Potency was inconclusive: 31.6 µM [inhibitor, single point]. In the case of CCOC(=O)C1(Cc2ccccc2Cl)CCN(C(=O)CN2CCOC2=O)CC1, the Potency is reported as inconclusive: 20.6 µM [activator, partial curve]. With CN(c1ccccc1)S(=O)(=O)c1ccc(C(=O)NCc2ccc(F)cc2)cc1 the Potency was inconclusive: 18.3 µM [inhibitor, single point]. With CCN(C(=O)CSc1ncn[nH]1)c1cccc2ccccc12 the Potency was inconclusive: 1 µM [activator, single point].
